The list shows a part of the results. These are further read-outs of the screen, such as a control signal, another cell line or another target. No call is given for them. Compounds called inactive in the main read-out are mostly missing here. Words in brackets tell the shape of the fitted curve; partial curves, single points and poor fits give uncertain potencies.
Assay: qHTS Assay for Lipid Storage Modulators in Drosophila S3 Cells;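 as to cell number change: cells counted by Cell Tracker Red CMTPX staining in the red channel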
Conditions: BODIPY lipid droplet fluorescence, 18-24 h; for cell number change: measured here: cell count max response, cells fed with added oleic acid
Outline: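 Laser-scanning cytometry quantifies lipid droplet accumulation (500–530 nm total intensity; droplet/cell object ratio) in oleic acid-fed (400 uM added) Drosophila S3 cells treated with a concentration series. 20 uM Triacsin C defined 100% inhibition.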

[1] = measured here: lipid fluorescence (Fed channel) AC50, cells fed with added oleic acid
[2] = measured here: cell number channel AC50, cells fed with added oleic acid

Structure (SMILES) | cell number change [%] | AC50 [1] | AC50 [2]
CCOC(=O)C1CCCN(c2ncnc3c2cnn3-c2cccc(C)c2)C1 (stereo not drawn) | -9.21 | – | –
CNC(=S)N1N=C(c2ccc(C)cc2)CC1c1cc(OC)ccc1OC (stereo not drawn) | 11.1 | 29.1 µM [falling, single point] | –
O=C(O)CCN1c2cccc3cccc(c23)S1(=O)=O | -10.5 | 35.5 µM [falling, single point] | –
Cc1cccc(NC(=O)COC(=O)c2ccccc2SCC(=O)N2CCCC2)c1 | -4.88 | 10.3 µM [falling, partial curve, poor fit] | –
Cc1nc(CNS(=O)(=O)c2cccs2)cs1 | -70.7 | 10.3 µM [falling, partial curve] | 25.9 µM [falling, partial curve]
COC(=O)NNC1=CC(=O)CC(C)(C)C1 | – | 0.58 µM [rising, single point] | 0.58 µM [rising, single point]
N#Cc1cccc(-n2nnnc2-c2ccc3c(c2)OCO3)c1 | – | – | 0.00517 µM [falling, partial curve, poor fit]
CCCC(=O)N1CCN(c2ccc(NC(=O)c3ccco3)cc2)CC1 | 13.7 | 1.64 µM [rising, partial curve] | –
Cc1nc2ncnn2c(C)c1Cc1cccc(C(F)(F)F)c1 | 44.2 | 6.51 µM [rising, partial curve, poor fit] | –
Cc1ccc(OC(F)F)c(NC(=O)Nc2ccc3c(c2)OCO3)c1 | 1.51 | 7.31 µM [rising, partial curve, poor fit] | –
CC1=C(C(=O)OCC2CCCO2)C(c2ccccc2OC(C)C)C2=C(CC(c3ccco3)CC2=O)N1 (stereo not drawn) | – | – | 4.61 µM [rising, partial curve]
CCN1CCN(C(=S)c2ccc(Cl)cc2)CC1 | 3.41 | – | 4.11 µM [falling, single point]
O=C(CNC(=O)c1ccccc1)NCC(=O)OCC(=O)c1ccccc1Cl | -4.42 | 29.1 µM [rising, partial curve] | –
COc1ccc(NC(=S)N2CCN(S(=O)(=O)c3ccc(OC)cc3)CC2)cc1 | 22 | 3.66 µM [rising, full curve, poor fit] | 2.06 µM [rising, partial curve]
CCc1nnc(NC(=O)C2CCCN2C(=O)Nc2ccccc2OC)s1 (stereo not drawn) | -8.06 | 0.326 µM [falling, full curve, poor fit] | –
Cc1ccc(C2C=NN(c3ccccc3)C2=O)cc1 (stereo not drawn) | 11.8 | 29.1 µM [rising, single point] | –
O=c1c(F)cn(C2CCCO2)c(=O)n1Cc1ccccc1F (stereo not drawn) | 11 | 0.184 µM [rising, partial curve] | –

Complete entries from above. Order of values: cell number change [%]	AC50 [1]	AC50 [2]
N#Cc1cccc(-n2nnnc2-c2ccc3c(c2)OCO3)c1 reads –	–	0.00517 µM [falling, partial curve, poor fit]
O=C(O)CCN1c2cccc3cccc(c23)S1(=O)=O reads -10.5	35.5 µM [falling, single point]	–

From PubChem BioAssay AID2685 (National Center for Advancing Translational Sciences (NCATS), 2010)
